Experimental data from article PMC3224144.
These are yes or no findings as the source states them, for the method shown. Blank lines part the entries; values can stand above or below the binder they belong to.

Assays:
[1] = target: T1, Cro (bacteriophage lambda), P03040; assay: two-hybrid; array-based yeast two-hybrid screens; each protein as bait (Gal4 DNA-binding domain) and as prey (Gal4 activation domain), N- and C-terminal fusions; bait-prey vector pairs pDEST32-pDEST22, pGBKT7g-pGADT7g, pGBKT7g-pGADCg, pGBKCg-pGADCg, pGBKCg-pGADT7g; ten configurations a pair; positives retested; conditions: remark: other sources report otherwise
T1 chain: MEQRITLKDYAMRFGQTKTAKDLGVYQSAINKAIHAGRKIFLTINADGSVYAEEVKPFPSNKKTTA

[2] = target: T2, Exo (exonuclease) (bacteriophage lambda), P03697; assay: as above; conditions: remark: other sources report otherwise
T2 chain: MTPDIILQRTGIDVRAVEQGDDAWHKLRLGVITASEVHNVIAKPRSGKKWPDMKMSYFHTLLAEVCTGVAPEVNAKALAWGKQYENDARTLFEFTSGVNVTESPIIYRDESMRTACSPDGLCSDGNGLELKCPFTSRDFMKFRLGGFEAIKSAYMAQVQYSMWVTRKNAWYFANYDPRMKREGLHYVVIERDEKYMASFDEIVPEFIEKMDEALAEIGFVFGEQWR

binding [1]: no binding
B1: Cro, P03040 1-66 (protein)
chain: T1 chain

binding [2]: no binding
B2: Bet (= β, strand annealing protein), P03698 1-261 (protein)
chain: MSTALATLAGKLAERVGMDSVDPQELITTLRQTAFKGDASDAQFIALLIVANQYGLNPWTKEIYAFPDKQNGIVPVVGVDGWSRIINENQQFDGMDFEQDNESCTCRIYRKDRNHPICVTEWMDECRREPFKTREGREITGPWQSHPKRMLRHKAMIQCARLAFGFAGIYDKDEAERIVENTAYTAERQPERDITPVNDETMQEINTLLIALDKTWDDDLLPLCSQIFRRDIRASSELTQAEAVKALGFLKQKAAEQKVAA
